# Record: PubChem BioAssay AID1224828 (NIAID, 2016)
# Aim: 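Find genes required for NF-kappaB p65 moving into the nucleus after LPS in mouse macrophages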 (primary screen)
# System: mouse RAW264.7 G9 macrophage reporter cells (GFP-p65, Tnf promoter-mCherry)
# Reagents: siRNA pool against mouse genes, 100 nM
# Time to read-out: 2 days siRNA transfection, then 40 min LPS before fixation
# Challenge: LPS (Salmonella minnesota R595) at 10 ng/ml
# Read-out: 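Microscopy ratio of nuclear to perinuclear-ring GFP-p65 signal, scaled to the plate median; gene score is the average of two replicate robust z-scores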
# Reading the numbers: p65 translocation robust z-score: higher = more nuclear NF-kappaB p65 after LPS than the plate median; nuclear/cytoplasmic p65 ratio: higher = more nuclear NF-kappaB p65
# Rule for the call: 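Called active when z exceeds 3.3 or falls under -1.56 (median of Tlr4 controls), giving activity score of at least 50; no calls for control wells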
# Calls: active = hit (p65 shift raised or lowered); inactive = no clear change
# Here is an unselected part of about 17,000 reagents. 762 of all reagents (4.5%) count as active. 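Active calls include both raised and lowered p65 entry, mostly lowered; wells with fewer than 50 cells lack a z-score.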 The raw values are shown without normalisation. Unmarked entries are inactive. Reagents against one gene are numbered here. No sequences are given here.
Gene,reagent,p65 translocation robust z-score,"nuclear/cytoplasmic p65 ratio, rep 1","nuclear/cytoplasmic p65 ratio, rep 2",low cell count flag
Klrb1a,1,2.96,2.02,1.78,enough cells to score
Atg13,1,-0.16,1.52,1.88,enough cells to score
Cldn15,1,-0.06,1.51,1.85,enough cells to score
Tcf20,1,-0.37,1.41,1.52,enough cells to score
Maz,1,,1.18,1.15,fewer than 50 cells per well; well left out of scoring
Dnajc9,1,-0.31,1.4,1.34,enough cells to score
Prelid1,1,-1.13,1.25,1.46,enough cells to score
Orm2,1,,1.59,1.26,fewer than 50 cells per well; well left out of scoring
Uqcrc1,1,-0.66,1.49,1.35,enough cells to score
Tmem42,1,,1.2,1.27,fewer than 50 cells per well; well left out of scoring
Alox5,1,1.29,1.62,1.55,enough cells to score
Gsdma,1,-1.45,1.45,1.31,enough cells to score
Pnpla7,1,1.39,1.85,2,enough cells to score
Pdk2,1,1.65,2,1.54,enough cells to score
Cd63,1,-0.23,1.42,1.37,enough cells to score
Ust,1,-2.61 (active),1.1,1.26,enough cells to score
Dnajc28,1,0.22,1.51,1.24,enough cells to score
Calhm2,1,1.14,1.33,1.84,enough cells to score
Cep112,1,,1.38,1.29,fewer than 50 cells per well; well left out of scoring
Slc38a1,1,,0.966,1.07,fewer than 50 cells per well; well left out of scoring
Or13ae2,1,0.19,1.63,1.45,enough cells to score
Vmn1r28,1,1.03,1.59,1.28,enough cells to score
Chmp2b,1,-0.51,1.39,1.29,enough cells to score
Grhl2,1,1.45,1.42,1.35,enough cells to score
Or5b119,1,1.28,1.67,1.71,enough cells to score
Six3os1,1,-0.53,1.32,1.36,enough cells to score
Ptpn18,1,0.98,1.55,1.61,enough cells to score
Aig1,1,0,1.63,1.66,enough cells to score
Uqcrh,1,0.78,1.83,1.63,enough cells to score
1700065D16Rik,1,-0.15,1.31,1.4,enough cells to score
Sema5a,1,1.46,1.59,1.42,enough cells to score
Itgb1,1,-0.32,1.47,1.31,enough cells to score
Or52ae9,1,-0.32,1.43,1.21,enough cells to score
Usp28,1,,1.49,1.16,fewer than 50 cells per well; well left out of scoring
Anapc1,1,0.77,1.67,1.8,enough cells to score
Zfp365,1,0.45,1.5,1.28,enough cells to score
Prcp,1,0.12,1.72,1.55,enough cells to score
Flad1,1,-0.87,1.35,1.41,enough cells to score
Olfr242,1,0.19,1.59,1.49,enough cells to score
Ifna6,1,-0.99,1.33,1.26,enough cells to score
Cdh1,1,3.3,2.01,1.72,enough cells to score
Rangrf,1,1.54,1.62,1.35,enough cells to score
Lpar3,1,,1.34,1.24,fewer than 50 cells per well; well left out of scoring
Ubqlnl,1,,1.02,1.08,fewer than 50 cells per well; well left out of scoring
Arrb2,1,,1.35,1.57,fewer than 50 cells per well; well left out of scoring
Dcps,1,0.74,1.61,1.4,enough cells to score
Tnr,1,-0.75,1.5,1.33,enough cells to score
Mau2,1,,1.33,1.67,fewer than 50 cells per well; well left out of scoring
Tcp10a,1,-0.3,1.16,1.16,enough cells to score
Tcp10a,2,,1.37,1.16,fewer than 50 cells per well; well left out of scoring
Coil,1,-0.09,1.53,1.8,enough cells to score
Stxbp5l,1,0.4,1.36,1.58,enough cells to score
Zfp455,1,,1.06,1.18,fewer than 50 cells per well; well left out of scoring
Dcun1d4,1,1.62,1.83,1.55,enough cells to score
Chtf8,1,-0.24,1.39,1.37,enough cells to score
Slc28a2,1,0.77,1.4,1.35,enough cells to score
Or11g7,1,0.44,1.34,1.32,enough cells to score
Skint11,1,-0.39,1.35,1.45,enough cells to score
4930429B21Rik,1,,1.55,1.55,fewer than 50 cells per well; well left out of scoring
Pmis2,1,,1.19,1.16,fewer than 50 cells per well; well left out of scoring
Klhl13,1,-1.4,1.34,1.12,enough cells to score
B3galt5,1,-1.59 (active),1.35,1.3,enough cells to score
Mycs,1,0.55,1.86,1.68,enough cells to score
Bag4,1,-0.49,1.53,1.55,enough cells to score
Notch3,1,-0.53,1.42,1.3,enough cells to score
Prp15 (retired record),1,1.04,1.52,1.33,enough cells to score
Greb1,1,-1.09,1.48,1.39,enough cells to score
Fbxl9,1,0.48,1.22,1.59,enough cells to score
Zfp12,1,-0.24,1.36,1.53,enough cells to score

5 of these entries, set out differently:
{"Gene":"Dcun1d4","reagent":1,"p65 translocation robust z-score":1.62,"nuclear/cytoplasmic p65 ratio, rep 1":1.83,"nuclear/cytoplasmic p65 ratio, rep 2":1.55,"low cell count flag":"enough cells to score"}
{"Gene":"Chtf8","reagent":1,"p65 translocation robust z-score":-0.24,"nuclear/cytoplasmic p65 ratio, rep 1":1.39,"nuclear/cytoplasmic p65 ratio, rep 2":1.37,"low cell count flag":"enough cells to score"}
{"Gene":"Slc28a2","reagent":1,"p65 translocation robust z-score":0.77,"nuclear/cytoplasmic p65 ratio, rep 1":1.4,"nuclear/cytoplasmic p65 ratio, rep 2":1.35,"low cell count flag":"enough cells to score"}
{"Gene":"Or11g7","reagent":1,"p65 translocation robust z-score":0.44,"nuclear/cytoplasmic p65 ratio, rep 1":1.34,"nuclear/cytoplasmic p65 ratio, rep 2":1.32,"low cell count flag":"enough cells to score"}
{"Gene":"Skint11","reagent":1,"p65 translocation robust z-score":-0.39,"nuclear/cytoplasmic p65 ratio, rep 1":1.35,"nuclear/cytoplasmic p65 ratio, rep 2":1.45,"low cell count flag":"enough cells to score"}
